# Experimental data published in PubChem BioAssay AID1273 (Columbia University Molecular Screening Center, 2008).
# Among all 130,000 compounds or so, about 1,200 (0.92%) were called active. Inconclusive means that the source gave no clear call. Such entries were picked first, then a sample of the others.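 How the source made its calls: active means inhibition above the mean plus 3 SD, with well images judged a real hit on visual review (cut at about 60% in these data, passing the limit was not always enough); inconclusive means inhibition over the cutoff but images rejected on review; inactive means inhibition not above the cutoff.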
# Experiment: inhibitors of insulin promoter-driven GFP, primary screen, imaging, TRM-6 cells (human fetal islet line), eGFP reporter, cell count (AID 1273)
# Conditions: at 2 µM, stronger effect = higher value, reporter expression induced with tamoxifen
row,SMILES,inhibition
1,Cc1ccnc(Nc2nc3ccccc3o2)n1,inconclusive: 80%
2,O=C(Nc1ccccc1-c1nc2ccccc2s1)c1cccnc1,inactive: 10.8%
3,Cc1cc(C)n(CC(=O)N2c3ccccc3Sc3ccc(C(F)(F)F)cc32)n1,inconclusive: 61.1%
4,CCN(CC)S(=O)(=O)c1ccc(NC(=O)c2cc(C(=O)OC)cc([N+](=O)[O-])c2)cc1,active: 70.6%
5,O=C(c1ccc(S(=O)(=O)N2CCCCC2)cc1)N1CCN(c2ccccc2F)CC1,inconclusive: 100%
6,CCN(CC)CCOC(=O)C12CC3CC(CC(C3)C1)C2,inactive: 9.09%
7,CCOC(=O)c1nn(-c2ccc(C)cc2)c(C)c1C(C)=O,inconclusive: 73.3%
8,O=C(Nc1ccc(Br)c(Cl)c1)C1CC1,inconclusive: 75%
9,COc1ccccc1NC(=S)N1CCCc2ccccc21,inconclusive: 75%
10,Cc1csc(NC(=O)CS(=O)(=O)c2ccccc2)n1,inconclusive: 70.6%
11,CCOC(=O)C1=C(CC)OC(N)=C(C#N)C1c1ccc(NC(C)=O)cc1 (configuration not stated),inactive: -31.2%
12,Cc1cc(/C=C2/C(=N)N3C(=NC2=O)SN=C3S(C)(=O)=O)c(C)n1-c1ccc(F)cc1,inconclusive: 81.8%
13,CC(C)c1ccc2c(c1)C1Cc3ccccc3C1N2 (configuration not stated),inactive: -137%
14,COc1cc2c(cc1OC)-c1cc(NC3CCCCCC3)nc(=O)n1CC2,inactive: 24.2%
15,CCCOc1cccc(OCCSc2nc(C)cc(=O)[nH]2)c1,inconclusive: 41.5%
16,Cc1ccccc1NC(=S)N(CCc1c(C)[nH]c2ccc(F)cc12)Cc1ccncc1,inactive: -72.7%
17,CCCCn1c(-c2ccc(Cl)cc2)nc2c(=O)n(C)c(=O)[nH]c21,inconclusive: 75%
18,Cc1nnc2c(NC3CCCC3)nc3ccccc3n12,inconclusive: 68.4%
19,CCCCOc1ccc(S(=O)(=O)NCc2csc(C)n2)cc1,inconclusive: 81.2%
20,O=C(NNC(=O)C1CCCO1)c1ccc(F)cc1 (configuration not stated),inactive: 33.3%
21,COc1ccc2c(Cl)c(C(=O)NCCCn3ccnc3)sc2c1,inactive: -485%
22,COCCCNC(=O)c1ccccc1SC,inconclusive: 75%
23,Cc1ccccc1Cn1ccc(NC(=O)c2nn(C)cc2[N+](=O)[O-])n1,active: 84.6%
24,Cc1sc(NC(=O)C2CCCCC2C(=O)O)c(C(N)=O)c1-c1ccc(C(C)(C)C)cc1 (configuration not stated),inactive: 37.5%
25,CC(C)(C)c1ccc(OCCN2CCCC2)cc1,inactive: 20%

# 6 of these compounds in a different format.
row	SMILES	inhibition
1	Cc1ccnc(Nc2nc3ccccc3o2)n1	inconclusive: 80%
2	O=C(Nc1ccccc1-c1nc2ccccc2s1)c1cccnc1	inactive: 10.8%
11	CCOC(=O)C1=C(CC)OC(N)=C(C#N)C1c1ccc(NC(C)=O)cc1 (configuration not stated)	inactive: -31.2%
12	Cc1cc(/C=C2/C(=N)N3C(=NC2=O)SN=C3S(C)(=O)=O)c(C)n1-c1ccc(F)cc1	inconclusive: 81.8%
16	Cc1ccccc1NC(=S)N(CCc1c(C)[nH]c2ccc(F)cc12)Cc1ccncc1	inactive: -72.7%
24	Cc1sc(NC(=O)C2CCCCC2C(=O)O)c(C(N)=O)c1-c1ccc(C(C)(C)C)cc1 (configuration not stated)	inactive: 37.5%

# (list continues)

row,SMILES,inhibition
1,CCC(=O)Nc1cccc(C(=O)/C=C/c2cc(Br)ccc2OC)c1,active: 94.3%
2,C/C=C/COc1nc2c(c(=O)n(C)c(=O)n2C)n1C,inactive: -50.6%
3,Cc1ccccc1S(=O)(=O)c1cc(C#N)c(=O)[nH]c1N,inconclusive: 76.9%
4,CCCC(=O)Nc1nnc(COC)s1,active: 89.5%
5,Cn1c(C(=O)N2CCN(C(=O)c3ccco3)CC2)cc2c(=O)n3ccccc3nc21,inconclusive: 76.2%
6,Clc1ccccc1-c1nc(-c2cccnc2)no1,inconclusive: 80%
7,CCOC(=O)C1=C(C)N=c2s/c(=C\c3ccncc3)c(=O)n2C1c1ccc2c(c1)OCO2 (configuration not stated),inactive: 0%
8,Cc1ccc(NC(=S)Nc2cc(-c3ccccc3)[nH]n2)cc1Cl,inconclusive: 71.4%
9,CCN1C(=O)/C(=C/c2nc3ccccc3c(=O)[nH]2)c2ccccc21,inconclusive: 62.5%
10,c1cncc(-c2nc(-c3cccs3)cs2)c1,inconclusive: 73.3%
11,COC(=O)N/N=C/c1ccc([N+](=O)[O-])s1,inactive: -21.4%
12,COc1ccc(CN(C)CC(=O)Nc2cc(OC)c([N+](=O)[O-])cc2C)c(OC)c1,active: 71.4%
13,Cc1cc(C)n(-c2nc3c(c(=O)n(Cc4ccc(Cl)c(Cl)c4)c(=O)n3C)n2C)n1,inconclusive: 100%
14,CCOc1nc(NC2CCCCC2)nc(NC(C)(C)C)n1,inconclusive: 76.7%
15,COc1ccc(N2CCN(C(CNC(=O)c3cccc(Cl)c3)c3cccnc3)CC2)cc1 (configuration not stated),inconclusive: 71.4%
16,S=C(c1nc2ccccc2[nH]1)N1CCOCC1,inconclusive: 75%
17,CC(=O)NC1=NC(=O)CS1,inconclusive: 72.7%
18,O=C(c1ccccc1)c1ccccc1C(=O)N1CCOCC1,active: 90%
19,O=C1C2C3C=CC(C3)C2C(=O)N1c1ccc(N2CCN(c3ccccn3)CC2)c([N+](=O)[O-])c1 (configuration not stated),inconclusive: 84.6%
20,CCC(C(=O)Nc1cc(C)on1)c1ccccc1 (configuration not stated),active: 70%
21,CC1Cc2nc(SCC(=O)Nc3ccc4c(c3)OCO4)n(CCc3ccccc3)c(=O)c2S1 (configuration not stated),inactive: 14.3%
22,O=C(Nc1ccc(Nc2ccccc2)cc1)C1CC1,inconclusive: 75%
23,Cc1ccc(-n2nc3c(N4CCN(c5ccccc5)CC4)nnc(C)c3c2C)cc1,inconclusive: 81.4%
24,CC(=O)N(CC(C)(C)CC=C(C)C)c1ccccc1,active: 65.2%
25,CC(C)Oc1ccc(NC(=O)c2ccncc2)cc1,inconclusive: 75%

row,SMILES,inhibition
1,Cc1ccc(OCCn2cnc3c(N)ncnc32)cc1,inactive: 2.56%
2,O=C(NS(=O)(=O)c1ccccc1)c1ccccc1,inconclusive: 70.8%
3,CC(C)c1nc2cc3ccccc3cc2[nH]1,active: 85.7%
4,COc1cc(/C=C/C(=O)OCC(=O)N2CC3(C)CC2CC(C)(C)C3)ccc1O (configuration not stated),inactive: 23.1%
5,COc1ccc(C(=O)Cn2c(NCCO)nc3ccccc32)cc1OC,active: 86.7%
6,CCOc1cc(S(=O)(=O)n2nc(C)cc2C)ccc1F,inconclusive: 50.3%
7,Cc1ccc(C(=O)C2=C(O)C(=O)N(CCCn3ccnc3)C2c2ccc(OC(C)C)cc2)o1 (configuration not stated),inactive: 66.7%
8,Cc1ccc(S(=O)(=O)NCCC(c2ccccc2)c2ccccc2)cc1C(=O)O,inconclusive: 73.3%
9,CN(C)C(C)(C)C#CCCCCC#CC(C)(C)N(C)C,active: 70.7%
10,CCOC(=O)c1c(N2C(=O)Nc3ccccc3N2O)n[nH]c1-c1cccc(Cl)c1,inconclusive: 71.4%
11,COc1cc(-c2nnc(SCC(=O)N3c4ccccc4Sc4ccccc43)o2)cc(OC)c1OC,inconclusive: 100%
12,CCn1c(=O)n(CCOC)c(=O)c2c3c(sc21)CCCC3,inactive: -25%
13,CC1CCCC(N2CCN(C(=O)c3cccc(F)c3)CC2)C1 (configuration not stated),inconclusive: 85.7%
14,Cc1cc2cc(CNS(=O)(=O)N(C)C)ccc2[nH]1,inconclusive: 85.7%
15,Cc1ccc(S(=O)(=O)N2CCSC2C(=O)O)cc1 (configuration not stated),inconclusive: 74.2%
16,CN(C)c1nc(NS(=O)(=O)c2ccc(Cl)cc2)nc(N(C)C)n1,inconclusive: 71.4%
17,Cc1cc(N2CCCC2=O)cc(C)c1CN1C(=O)c2ccccc2C1=O,inactive: -145%
18,Nc1nc(SCC(=O)Nc2ccc(Br)cc2F)n[nH]1,inconclusive: 75%
19,CCn1c(C)nc2cc(OC)ccc21,inconclusive: 70%
20,CCOc1ccc(-c2nnc(-c3ccncc3)o2)cc1,inactive: -21.2%
21,Cc1ccc2nc(NNC(=O)c3ccc(S(=O)(=O)N4CCc5ccccc5C4)cc3)sc2c1,inconclusive: 61%
22,CC1Cc2ccccc2N1C(=O)CSc1nnnn1C(C)C (configuration not stated),inactive: -34.3%
23,CCOC(=O)CSc1nc2cc(C)ccc2cc1C#N,inconclusive: 73.3%
24,O=C(CCCN1C(=O)CCC1=O)Nc1cccc(C(F)(F)F)c1,inconclusive: 77.3%
25,c1ccc(Cc2nnc3sc(-c4cccs4)nn23)cc1,inconclusive: 76.7%

row,SMILES,inhibition
1,Cc1ccnc(NC2OC(=O)c3ccccc32)c1 (configuration not stated),inactive: 10.7%
2,COc1ccc(Nc2cc(Cl)nc(N)n2)cc1,inactive: 27.3%
3,COc1ccc(-c2n[nH]c3c2C(c2ccc(OC)c(OC)c2)N(c2ccccc2)C3=O)cc1 (configuration not stated),active: 69.4%
4,N#CCC(=O)Nn1c(=S)[nH]c2ccccc2c1=O,inactive: 20%
5,Cc1noc(C)c1COc1ccc(C(=O)OC(C)C(=O)Nc2ccc(N3CCOCC3)cc2)cc1 (configuration not stated),inconclusive: 71.4%
6,C(=C1/CCCC2=C1Nc1ncnn1C2c1ccccc1)/c1ccccc1 (configuration not stated),active: 73%
7,CN(Cc1nc2ccccc2n1C)S(=O)(=O)c1ccc(F)cc1,active: 93.3%
8,CC1CN(S(=O)(=O)c2ccc(C(=O)Nc3sc4c(c3C(N)=O)CCN(C)C4)cc2)CC(C)O1 (configuration not stated),inconclusive: 71.4%
9,Cc1ccc(NC(=O)C2CC(=O)NC(N3CCCCC3)=N2)cc1Cl (configuration not stated),inactive: 36.4%
10,Clc1ccc2nc(N3CCCCC3)[nH]c2c1,active: 86.7%
11,CSc1nnc(NC(=O)C2CCCCC2)s1,inconclusive: 70%
12,CC(=O)c1cccc(NC(=O)c2nccnc2C(=O)O)c1,inconclusive: 71.4%
13,C/C(=N\NC(=O)c1c(C)nc2ccccn12)c1ccco1,inconclusive: 72.7%
14,CN(Cc1ccccc1)C(=O)c1cnc2n(c1=O)CCS2,inconclusive: 81.2%
15,Cc1ccc(-c2nnn(CC(=O)N(CC(=O)NC(C)C)c3cnc4ccccc4c3)n2)o1,inconclusive: 71.4%
16,Cc1ccc(C2=NC(=O)/C(=C/c3cc(O)c(O)c(Br)c3)S2)cc1,inconclusive: 71.4%
17,N#Cc1ccc(C(=O)Nc2cccc3ncccc23)c(F)c1,inconclusive: 65.5%
18,CCNc1c2c(nc3ccccc13)CC(C)(C)CC2=O,inconclusive: 76.7%
19,O=C(Cn1nnc(-c2ccccc2NC(=O)c2ccco2)n1)NC1CCCCC1,inactive: 18.2%
20,COc1ccc(Cn2nnnc2C(c2cccs2)N2CCOCC2)cc1 (configuration not stated),active: 100%
21,O=C(c1cc2cc(Br)ccc2oc1=O)N1CCN(c2ccccn2)CC1,inconclusive: 75%
22,CC(Cc1cccs1)NC(=O)c1cccc(Cl)c1 (configuration not stated),inconclusive: 60%
